From patent EP0895778A2, “Cosmetic composition” (Ajinomoto Co., Inc., priority 1997, dated 1999)

Test system: activated sludge
Test: BOD-based biodegradability test, OECD Chemicals Test Guideline 301C Modified MITI Test (I)
Conditions: for Biodegradability, Average: average of Cultivation Tests 1 to 3; for Biodegradability: single cultivation test / control test

Compound	Biodegradability, Average (7 days)	Biodegradability (7 days)	Biodegradability, Average (14 days)	Biodegradability (14 days)	Biodegradability, Average (21 days)	Biodegradability (21 days)	Biodegradability, Average (28 days)	Biodegradability (28 days)	Biodegradability (7 days, listed as aniline)
CCCCCCCCCCCCCCCCCC[N+](C)(C)C.[Cl-] [Stearyltrimethylammonium Chloride]	0.0%	0.0%	0.0%	0.0%	0.0%	0.0%	0.0%	0.0%	
Nc1ccccc1 [Aniline]		65.4%		72.4%		75.7%		77.7%	higher than 40%
